Test results taken from publication PMC2776356 (2009).
No constants are given. Whether binding was seen depends on the method and setting. Some binding calls cover weakened binding; strength is not graded here.

Molecular target: T1, Nkd1^1–286 (yeast two-hybrid bait) (human) (UniProt Q969G9)
T1 sequence: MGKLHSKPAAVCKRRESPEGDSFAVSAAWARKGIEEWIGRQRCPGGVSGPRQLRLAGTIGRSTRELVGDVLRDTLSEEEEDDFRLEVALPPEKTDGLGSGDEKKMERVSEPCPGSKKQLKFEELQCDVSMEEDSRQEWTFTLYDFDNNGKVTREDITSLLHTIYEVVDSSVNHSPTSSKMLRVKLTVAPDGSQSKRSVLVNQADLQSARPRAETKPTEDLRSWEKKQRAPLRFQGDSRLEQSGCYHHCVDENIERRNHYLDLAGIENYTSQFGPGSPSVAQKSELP
Test: two-hybrid; Nkd1 baits in pAS2-1, Dvl preys in pAct2, yeast reporter strain Y190; growth on triple dropout (-Leu-Trp-His) with 50 mM 3-AT against double dropout (-Leu-Trp); quantitative ONPG assay

binding: binds
B1: Dvl1 (yeast two-hybrid prey) (protein, UniProt O14640 1-695)
chain: MAETKIIYHMDEEETPYLVKLPVAPERVTLADFKNVLSNRPVHAYKFFFKSMDQDFGVVKEEIFDDNAKLPCFNGRVVSWLVLAEGAHSDAGSQGTDSHTDLPPPLERTGGIGDSRPPSFHPNVASSRDGMDNETGTESMVSHRRERARRRNREEAARTNGHPRGDRRRDVGLPPDSASTALSSELESSSFVDSDEDGSTSRLSSSTEQSTSSRLIRKHKRRRRKQRLRQADRASSFSSITDSTMSLNIVTVTLNMERHHFLGISIVGQSNDRGDGGIYIGSIMKGGAVAADGRIEPGDMLLQVNDVNFENMSNDDAVRVLREIVSQTGPISLTVAKCWDPTPRSYFTVPRADPVRPIDPAAWLSHTAALTGALPRYGTSPCSSAVTRTSSSSLTSSVPGAPQLEEAPLTVKSDMSAVVRVMQLPDSGLEIRDRMWLKITIANAVIGADVVDWLYTHVEGFKERREARKYASSLLKHGFLRHTVNKITFSEQCYYVFGDLCSNLATLNLNSGSSGTSDQDTLAPLPHPAAPWPLGQGYPYQYPGPPPCFPPAYQDPGFSYGSGSTGSQQSEGSKSSGSTRSSRRAPGREKERRAAGAGGSGSESDHTAPSGVGSSWRERPAGQLSRGSSPRSQASATAPGLPPPHPTTKAYTVVGGPPGGPPVRELAAVPPELTGSRQSFQKAMGNPCEFFVDIM
